Test results published in PubChem BioAssay.
This is one part of the list. Shown are side measurements of this screen, not its main read-out; they come without a call. The list favours compounds with an active or inconclusive main result.

Assay: Her2 expression decrease, cell viability multiplex – SKBR3 breast tumor cells, AlphaScreen, ATP viability, primary screen (AID 461);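 also: percent of carrier control wells set as 100% viability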
Conditions: SKBR3 Her2 protein level, 18-24 h, measured here: SKBR3 viability, ATP luminescence, at 10 µM

Row | SMILES | viability [%]
1 | Cc1ccc(C)n1-c1ccc(N2CCOCC2)cc1 | 104
2 | COc1ccccc1-c1noc(-c2ccco2)n1 | 102
3 | Cc1ccccc1Nc1cc2ccccc2c(=O)[nH]1 | 95.5
4 | CC(=O)SCC(=O)N=c1sc2cc(F)ccc2n1C | 90.5
5 | Oc1cccc(Nc2nc(NCC3CCCO3)c3ccccc3n2)c1 (configuration not stated) | 73
6 | CNCCCC12CCC(c3ccccc31)c1ccccc12 | 47.5
7 | C=C(C)COc1ccc(-c2n[nH]c(C)c2-c2ccccc2)c(O)c1 | 56
8 | Cc1oc(-c2cccc(Cl)c2)nc1CN1CCC(C(=O)N2CCN(c3ccccc3F)CC2)CC1 | 73
9 | COc1ccc(-c2nnnn2C)cc1S(=O)(=O)NCc1ccccc1 | 93.5
10 | CSC1=N/C(=C\C=C\c2cccs2)C(=O)S1 | 95
11 | COc1ccc(OC)c(S(=O)(=O)Nc2ccc(O)c3ccccc23)c1 | 6
12 | CCc1c(C)n([O-])c2c([n+]1=O)CCC2 | 104
13 | COc1ccc(-c2nc3cc(NC(=O)Cc4ccc(OC)c(OC)c4)ccc3o2)cc1 | 90.5
14 | COC(=O)CS(=O)(=O)c1nnc([C@H](Cc2ccccc2)NC(=O)OC(C)(C)C)o1 | 77.5
15 | O=C(CN1CCN(c2nc(-c3ccc(F)cc3)cs2)CC1)NCc1ccc2c(c1)OCO2 | 175
16 | CSc1ccc2c(c1)N(CCC1CCCCN1C)c1ccccc1S2 (configuration not stated) | 49
17 | c1ccc(-c2ccc(-c3ccccn3)nn2)nc1 | 112
18 | Fc1cccc(Nc2cc(-n3cccn3)ncn2)c1 | 95
19 | O=C(c1ccco1)N1CCN(CCCCN2C(=O)c3ccccc3C2=O)CC1 | 102

Copied from the list.
`CSC1=N/C(=C\C=C\c2cccs2)C(=O)S1` – viability [%]: 95
`C=C(C)COc1ccc(-c2n[nH]c(C)c2-c2ccccc2)c(O)c1` – viability [%]: 56
`CC(=O)SCC(=O)N=c1sc2cc(F)ccc2n1C` – viability [%]: 90.5

Additional results follow:

Row | SMILES | viability [%]
20 | Cc1ccc(-c2oc3ccccc3c(=O)c2O)cc1 | 78.5
21 | Cn1c(C(=O)Nc2ccc3c(c2)OCO3)cc2c(=O)n(C)c3ccccc3c21 | 73
22 | C(=N/n1c2ccccc2c2ccccc21)/c1ccco1 | 81
23 | Cc1nc(NC2=NCN(CCCN3CCOCC3)CN2)nc2c(C)cccc12 | 158
24 | Cc1ccc(N2C(=O)c3oc4ccccc4c(=O)c3C2c2cccc(O)c2)nc1 (configuration not stated) | 102
25 | COc1ccc(-n2cc(-c3ccccc3)c3c(N4CCN(CCO)CC4)ncnc32)cc1 | 100
26 | O=C(Nc1ccccc1-c1nc2ccccc2o1)c1ccc2c(c1)OCCO2 | 112
27 | Cc1ccc(-n2nc3cc(Cl)c(NC(=O)c4ccco4)cc3n2)cc1 | 116
28 | CC(C)CCn1c(SCC#N)nc2c(sc3ccccc32)c1=O | 102
29 | FC(F)(F)COc1nc(N2CCCCC2)nc(N2CCNCC2)n1 | 82
30 | COc1ccc(CCNc2oc(COc3ccc(F)cc3)nc2C#N)cc1 | 164
31 | CCCCOc1ccc(C2C3CN(C(=O)OCC)CC=C3C(C#N)=C(N)C2(C#N)C#N)cc1OC (configuration not stated) | 62
32 | Cc1cccc(C)c1OCC(=O)Nc1cccc(NC(=O)c2ccco2)c1 | 97
33 | COc1cccc(-c2cc(C(=O)Nc3cc(C)n(Cc4ccc(Cl)cc4)n3)no2)c1 | 57.5
34 | CNCCCN1c2ccccc2CCc2ccccc21 | 61.5
35 | COCc1cc(C)nc(Nc2ccc(C)cc2C)c1C#N | 70
36 | CC(C)Cc1nc2oc3c(N4CCN(CCO)CC4)ncnc3c2c2c1CCCC2 | 50.5
37 | Cc1ccc(O)c(-c2cc(C(=O)Nc3ccc(S(=O)(=O)N4CC(C)OC(C)C4)cc3)[nH]n2)c1 (configuration not stated) | 92
